Assay results reported in article PMC10576855.
No constants are given. Whether binding was seen depends on the method and setting. Some entries that bind do so weakly or less than the wild type.

Biological target: T1, CD24 on 293T-CD24 cells (human), P25063
T1 chain: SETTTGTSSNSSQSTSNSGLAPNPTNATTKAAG
Test: flow cytometry on cells; 293T-CD24 cells incubated with diluted IMM47 (from 5 μg/ml, three-fold dilutions) at 4 °C for 45 min, then PE-labeled human Siglec-10 at 4 °C for 45 min; PBS; only the binder purified
Settings: remark: other sources report otherwise

- binding: binds
B1: PE-labeled human Siglec-10, Q96LC7 17-550 (receptor)
chain: MDGRFWIRVQESVMVPEGLCISVPCSFSYPRQDWTGSTPAYGYWFKAVTETTKGAPVATNHQSREVEMSTRGRFQLTGDPAKGNCSLVIRDAQMQDESQYFFRVERGSYVRYNFMNDGFFLKVTALTQKPDVYIPETLEPGQPVTVICVFNWAFEECPPPSFSWTGAALSSQGTKPTTSHFSVLSFTPRPQDHNTDLTCHVDFSRKGVSAQRTVRLRVAYAPRDLVISISRDNTPALEPQPQGNVPYLEAQKGQFLRLLCAADSQPPATLSWVLQNRVLSSSHPWGPRPLGLELPGVKAGDSGRYTCRAENRLGSQQRALDLSVQYPPENLRVMVSQANRTVLENLGNGTSLPVLEGQSLCLVCVTHSSPPARLSWTQRGQVLSPSQPSDPGVLELPRVQVEHEGEFTCHARHPLGSQHVSLSLSVHYSPKLLGPSCSWEAEGLHCSCSSQASPAPSLRWWLGEELLEGNSSQDSFEVTPSSAGPWANSSLSLHGGLSSGLRLRCEAWNVHGAQSGSILQLPDKKGLISTAFSN
modifications: here or on the partner: PE label
